Assay results: PMC5457515
No constants are given. Whether binding was seen depends on the method and setting. In cells and extracts the contact can be indirect. Some results given as binding are weak or reduced against the parent protein; the word gives no strength. For some of these results: Where a sequence is shown, tags or fusion partners need not be part of it.

Protein sequences, listed by entry. Tags and fused reporters are not part of them.
UniProt Q86WV6: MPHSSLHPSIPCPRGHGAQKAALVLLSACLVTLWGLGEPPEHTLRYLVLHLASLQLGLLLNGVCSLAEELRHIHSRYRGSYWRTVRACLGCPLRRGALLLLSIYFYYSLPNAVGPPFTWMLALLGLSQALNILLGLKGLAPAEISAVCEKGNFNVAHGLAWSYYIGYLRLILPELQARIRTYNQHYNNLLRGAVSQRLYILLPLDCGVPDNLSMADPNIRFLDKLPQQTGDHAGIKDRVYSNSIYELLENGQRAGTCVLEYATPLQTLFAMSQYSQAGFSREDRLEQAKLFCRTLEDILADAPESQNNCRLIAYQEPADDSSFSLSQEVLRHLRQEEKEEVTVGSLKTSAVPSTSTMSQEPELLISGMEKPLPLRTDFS
UniProt P45974: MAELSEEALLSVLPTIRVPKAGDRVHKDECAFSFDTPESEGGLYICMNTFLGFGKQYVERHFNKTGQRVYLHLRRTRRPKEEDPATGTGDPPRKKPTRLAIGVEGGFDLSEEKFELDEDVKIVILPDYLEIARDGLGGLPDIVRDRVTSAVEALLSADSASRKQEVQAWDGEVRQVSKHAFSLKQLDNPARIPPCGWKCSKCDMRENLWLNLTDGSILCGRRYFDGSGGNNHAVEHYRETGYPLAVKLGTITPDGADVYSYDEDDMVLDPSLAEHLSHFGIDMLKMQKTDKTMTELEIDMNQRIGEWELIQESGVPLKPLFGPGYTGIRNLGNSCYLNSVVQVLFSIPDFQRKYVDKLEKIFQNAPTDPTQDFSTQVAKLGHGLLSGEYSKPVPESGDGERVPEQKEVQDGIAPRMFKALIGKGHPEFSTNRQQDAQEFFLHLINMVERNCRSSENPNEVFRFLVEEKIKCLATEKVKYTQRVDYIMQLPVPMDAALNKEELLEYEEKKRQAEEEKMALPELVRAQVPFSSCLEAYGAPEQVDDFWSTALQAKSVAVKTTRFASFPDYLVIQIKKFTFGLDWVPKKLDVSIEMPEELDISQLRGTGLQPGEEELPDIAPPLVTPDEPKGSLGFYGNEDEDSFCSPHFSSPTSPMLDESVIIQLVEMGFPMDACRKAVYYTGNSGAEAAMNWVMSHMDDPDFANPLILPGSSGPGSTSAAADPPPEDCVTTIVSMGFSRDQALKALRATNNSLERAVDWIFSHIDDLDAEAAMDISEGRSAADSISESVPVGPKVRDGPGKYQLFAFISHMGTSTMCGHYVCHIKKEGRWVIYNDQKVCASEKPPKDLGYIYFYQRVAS
UniProt Q9UKV5: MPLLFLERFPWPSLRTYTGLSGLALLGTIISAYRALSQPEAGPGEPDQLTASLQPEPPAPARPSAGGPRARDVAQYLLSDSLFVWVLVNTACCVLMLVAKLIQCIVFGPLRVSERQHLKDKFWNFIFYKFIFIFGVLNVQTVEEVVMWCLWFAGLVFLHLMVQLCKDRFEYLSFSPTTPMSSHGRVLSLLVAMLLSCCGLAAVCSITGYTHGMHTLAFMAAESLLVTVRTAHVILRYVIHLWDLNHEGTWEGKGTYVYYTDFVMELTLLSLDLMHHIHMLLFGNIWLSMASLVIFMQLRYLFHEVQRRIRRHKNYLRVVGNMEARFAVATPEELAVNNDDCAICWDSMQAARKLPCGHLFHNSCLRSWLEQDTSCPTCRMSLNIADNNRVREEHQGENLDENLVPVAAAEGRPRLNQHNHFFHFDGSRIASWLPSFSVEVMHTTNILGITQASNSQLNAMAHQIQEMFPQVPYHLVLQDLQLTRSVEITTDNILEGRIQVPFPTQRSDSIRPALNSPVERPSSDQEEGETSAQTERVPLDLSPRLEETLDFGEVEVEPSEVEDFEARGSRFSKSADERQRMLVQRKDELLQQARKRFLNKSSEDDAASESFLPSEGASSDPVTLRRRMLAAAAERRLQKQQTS
UniProt Q13049: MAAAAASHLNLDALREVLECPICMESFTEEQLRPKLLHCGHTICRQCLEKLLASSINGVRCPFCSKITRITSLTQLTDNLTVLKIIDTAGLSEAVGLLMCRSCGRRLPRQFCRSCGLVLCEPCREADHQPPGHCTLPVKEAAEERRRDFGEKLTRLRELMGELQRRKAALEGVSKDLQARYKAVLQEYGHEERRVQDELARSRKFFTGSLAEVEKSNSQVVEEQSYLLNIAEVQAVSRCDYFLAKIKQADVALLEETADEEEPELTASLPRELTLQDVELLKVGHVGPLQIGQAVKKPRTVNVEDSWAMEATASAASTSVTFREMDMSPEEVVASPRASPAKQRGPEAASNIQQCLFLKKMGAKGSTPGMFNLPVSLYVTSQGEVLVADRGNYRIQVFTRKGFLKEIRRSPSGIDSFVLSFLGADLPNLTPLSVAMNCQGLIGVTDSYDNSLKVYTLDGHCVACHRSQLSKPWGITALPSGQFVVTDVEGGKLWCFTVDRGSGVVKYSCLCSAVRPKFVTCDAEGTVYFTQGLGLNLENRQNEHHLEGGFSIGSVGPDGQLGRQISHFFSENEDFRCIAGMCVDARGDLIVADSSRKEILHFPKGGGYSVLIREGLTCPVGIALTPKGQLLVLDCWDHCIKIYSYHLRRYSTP

Columns and labels:
[1] = biological target: STING, overexpressed (Supplementary Figs 6a and 9c) (UniProt Q86WV6); assay: co-IP; association of STING with AMFR or TRIM32, with USP13 (Supplementary Fig. 6a; legend not shown)
[2] = biological target: FLAG-tagged USP5 (UniProt P45974); assay: co-IP; HEK293 cells transfected 24 h with FLAG-tagged USPs and HA-STING; IP with anti-FLAG, blot with anti-FLAG and anti-HA; lysis buffer 20 mM Tris-HCl pH 7.4-7.5, 150 mM NaCl, 1 mM EDTA, 1% Nonidet P-40
[3] = biological target: T1, FLAG-tagged ubiquitin-specific protease 13 (USP13) (UniProt Q92995); assay: as above
T1 sequence: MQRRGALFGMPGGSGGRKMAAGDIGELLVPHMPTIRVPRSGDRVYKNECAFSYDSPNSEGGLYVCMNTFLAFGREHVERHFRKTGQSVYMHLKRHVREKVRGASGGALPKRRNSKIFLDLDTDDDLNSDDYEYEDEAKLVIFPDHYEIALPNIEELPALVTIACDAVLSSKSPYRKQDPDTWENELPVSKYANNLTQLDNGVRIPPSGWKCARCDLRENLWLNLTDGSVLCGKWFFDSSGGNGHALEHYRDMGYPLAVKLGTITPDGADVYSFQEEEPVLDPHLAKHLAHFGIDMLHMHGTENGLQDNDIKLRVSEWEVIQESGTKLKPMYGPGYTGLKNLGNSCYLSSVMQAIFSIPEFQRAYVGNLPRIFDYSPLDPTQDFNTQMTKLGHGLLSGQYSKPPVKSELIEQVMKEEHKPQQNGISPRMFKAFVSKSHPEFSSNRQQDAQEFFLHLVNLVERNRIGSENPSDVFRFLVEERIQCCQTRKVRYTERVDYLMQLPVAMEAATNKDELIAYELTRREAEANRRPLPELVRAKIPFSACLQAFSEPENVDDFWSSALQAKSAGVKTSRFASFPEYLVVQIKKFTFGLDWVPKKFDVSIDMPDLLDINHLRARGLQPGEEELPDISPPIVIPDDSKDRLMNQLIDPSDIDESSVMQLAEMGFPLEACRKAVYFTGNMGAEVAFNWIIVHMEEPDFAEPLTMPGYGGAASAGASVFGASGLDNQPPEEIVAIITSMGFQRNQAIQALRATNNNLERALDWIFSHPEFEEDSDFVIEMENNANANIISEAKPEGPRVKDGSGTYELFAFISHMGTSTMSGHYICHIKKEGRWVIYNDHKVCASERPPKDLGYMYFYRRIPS

Row | Substance | binding [1] | binding [2] | binding [3]
1 | AMFR (from UniProt Q9UKV5 1-643) (enzyme) | binds |  | 
2 | HA-STING (from UniProt Q86WV6 1-379) |  | no binding | binds
3 | TRIM32 (from UniProt Q13049 1-653) (enzyme) | binds |  | 
